The values below come from patent US20230242871A1, “GENERATION OF PRIMORDIAL GERM CELLS AND METHODS OF USING THE SAME” (The Board of Trustees of the Leland Stanfor Junior …, priority 2020, published 2023).

Sequences and labels used below:
B1: CD112 (protein, UniProt Q92692 32-538, looked up)
Nectin-2: QDVRVQVLPEVRGQLGGTVELPCHLLPPVPGLYISLVTWQRPDAPANHQNVAAFHPKMGPSFPSPKPGSERLSFVSAKQSTGQDTEAELQDATLALHGLTVEDEGNYTCEFATFPKGSVRGMTWLRVIAKPKNQAEAQKVTFSQDPTTVALCISKEGRPPARISWLSSLDWEAKETQVSGTLAGTVTVTSRFTLVPSGRADGVTVTCKVEHESFEEPALIPVTLSVRYPPEVSISGYDDNWYLGRTDATLSCDVRSNPEPTGYDWSTTSGTFPTSAVAQGSQLVIHAVDSLFNTTFVCTVTNAVGMGRAEQVIFVRETPNTAGAGATGGIIGGIIAAIIATAVAATGILICRQQRKEQTLQGAEEDEDLEGPPSYKPPTPKAKLEAQEMPSQLFTLGASEHSPLKTPYFDAGASCTEQEMPRYHELPTLEERSGPLHPGATSLGSPIPVPPGPPAVEDVSLDLEDEEGEEEEEYLDKINPIYDALSYSSPSDSYQGKGFVMSRAMYV
B2: TLT-2 (protein, UniProt Q5T2D2 19-321, looked up)
Trem-like transcript 2 protein: GPSADSVYTKVRLLEGETLSVQCSYKGYKNRVEGKVWCKIRKKKCEPGFARVWVKGPRYLLQDDAQAKVVNITMVALKLQDSGRYWCMRNTSGILYPLMGFQLDVSPAPQTERNIPFTHLDNILKSGTVTTGQAPTSGPDAPFTTGVMVFTPGLITLPRLLASTRPASKTGYSFTATSTTSQGPRRTMGSQTVTASPSNARDSSAGPESISTKSGDLSTRSPTTGLCLTSRSLLNRLPSMPSIRHQDVYSTVLGVVLTLLVLMLIMVYGFWKKRHMASYSMCSDPSTRDPPGRPEPYVEVYLI
B3: TM4SF20 (protein, UniProt Q53R12 1-229, looked up)
Transmembrane 4 L6 family …: MTCCEGWTSCNGFSLLVLLLLGVVLNAIPLIVSLVEEDQFSQNPISCFEWWFPGIIGAGLMAIPATTMSLTARKRACCNNRTGMFLSSLFSVITVIGALYCMLISIQALLKGPLMCNSPSNSNANCEFSLKNISDIHPESFNLQWFFNDSCAPPTGFNKPTSNDTMASGWRASSFHFDSEENKHRLIHFSVFLGLLLVGILEVLFGLSQIVIGFLGCLCGVSKRRSQIV
B4: DR3 (protein, UniProt Q93038 25-417, looked up)
Tumor necrosis factor …: QGGTRSPRCDCAGDFHKKIGLFCCRGCPAGHYLKAPCTEPCGNSTCLVCPQDTFLAWENHHNSECARCQACDEQASQVALENCSAVADTRCGCKPGWFVECQVSQCVSSSPFYCQPCLDCGALHRHTRLLCSRRDTDCGTCLPGFYEHGDGCVSCPTSTLGSCPERCAAVCGWRQMFWVQVLLAGLVVPLLLGATLTYTYRHCWPHKPLVTADEAGMEALTPPPATHLSPLDSAHTLLAPPDSSEKICTVQLVGNSWTPGYPETQEALCPQVTWSWDQLPSRALGPAAAPTLSPESPAGSPAMMLQPGPQLYDVMDAVPARRWKEFVRTLGLREAEIEAVEVEIGRFRDQQYEMLKRWRQQQPAGLGAVYAALERMGLDGCVEDLRSRLQRGP
B5: MERTK (protein, UniProt Q12866 21-999, looked up)
Tyrosine-protein kinase Mer: AITEAREEAKPYPLFPGPFPGSLQTDHTPLLSLPHASGYQPALMFSPTQPGRPHTGNVAIPQVTSVESKPLPPLAFKHTVGHIILSEHKGVKFNCSISVPNIYQDTTISWWKDGKELLGAHHAITQFYPDDEVTAIIASFSITSVQRSDNGSYICKMKINNEEIVSDPIYIEVQGLPHFTKQPESMNVTRNTAFNLTCQAVGPPEPVNIFWVQNSSRVNEQPEKSPSVLTVPGLTEMAVFSCEAHNDKGLTVSKGVQINIKAIPSPPTEVSIRNSTAHSILISWVPGFDGYSPFRNCSIQVKEADPLSNGSVMIFNTSALPHLYQIKQLQALANYSIGVSCMNEIGWSAVSPWILASTTEGAPSVAPLNVTVFLNESSDNVDIRWMKPPTKQQDGELVGYRISHVWQSAGISKELLEEVGQNGSRARISVQVHNATCTVRIAAVTRGGVGPFSDPVKIFIPAHGWVDYAPSSTPAPGNADPVLIIFGCFCGFILIGLILYISLAIRKRVQETKFGNAFTEEDSELVVNYIAKKSFCRRAIELTLHSLGVSEELQNKLEDVVIDRNLLILGKILGEGEFGSVMEGNLKQEDGTSLKVAVKTMKLDNSSQREIEEFLSEAACMKDFSHPNVIRLLGVCIEMSSQGIPKPMVILPFMKYGDLHTYLLYSRLETGPKHIPLQTLLKFMVDIALGMEYLSNRNFLHRDLAARNCMLRDDMTVCVADFGLSKKIYSGDYYRQGRIAKMPVKWIAIESLADRVYTSKSDVWAFGVTMWEIATRGMTPYPGVQNHEMYDYLLHGHRLKQPEDCLDELYEIMYSCWRTDPLDRPTFSVLRLQLEKLLESLPDVRNQADVIYVNTQLLESSEGLAQGSTLAPLDLNIDPDSIIASCTPRAAISVVTAEVHDSKPHEGRYILNGGSEEWEDLTSAPSAAVTAEKNSVLPGERLVRNGVSWSHSSMLPLGSSLPDELLFADDSSEGSEVLM
B6: CD357 (protein, UniProt Q9Y5U5 26-241, looked up)
Tumor necrosis factor …: QRPTGGPGCGPGRLLLGTGTDARCCRVHTTRCCRDYPGEECCSEWDCMCVQPEFHCGDPCCTTCRHHPCPPGQGVQSQGKFSFGFQCIDCASGTFSGGHEGHCKPWTDCTQFGFLTVFPGNKTHNAVCVPGSPPAEPLGWLTVVLLAVAACVLLLTSAQLGLHIWQLRSQCMWPRETQLLLEVPPSTEDARSCQFPEEERGERSAEEKGRLGDLWV
B7: CD96 (protein, UniProt P40200 22-585, looked up)
T-cell surface protein tactile: VWEKTVNTEENVYATLGSDVNLTCQTQTVGFFVQMQWSKVTNKIDLIAVYHPQYGFYCAYGRPCESLVTFTETPENGSKWTLHLRNMSCSVSGRYECMLVLYPEGIQTKIYNLLIQTHVTADEWNSNHTIEIEINQTLEIPCFQNSSSKISSEFTYAWSVENSSTDSWVLLSKGIKEDNGTQETLISQNHLISNSTLLKDRVKLGTDYRLHLSPVQIFDDGRKFSCHIRVGPNKILRSSTTVKVFAKPEIPVIVENNSTDVLVERRFTCLLKNVFPKANITWFIDGSFLHDEKEGIYITNEERKGKDGFLELKSVLTRVHSNKPAQSDNLTIWCMALSPVPGNKVWNISSEKITFLLGSEISSTDPPLSVTESTLDTQPSPASSVSPARYPATSSVTLVDVSALRPNTTPQPSNSSMTTRGFNYPWTSSGTDTKKSVSRIPSETYSSSPSGAGSTLHDNVFTSTARAFSEVPTTANGSTKTNHVHITGIVVNKPKDGMSWPVIVAALLFCCMILFGLGVRKWCQYQKEIMERPPPFKPPPPPIKYTCIQEPNESDLPYHEMETL
B8: Tim-4 (protein, UniProt Q96H15 25-378, looked up)
T-cell immunoglobulin and …: ETVVTEVLGHRVTLPCLYSSWSHNSNSMCWGKDQCPYSGCKEALIRTDGMRVTSRKSAKYRLQGTIPRGDVSLTILNPSESDSGVYCCRIEVPGWFNDVKINVRLNLQRASTTTHRTATTTTRRTTTTSPTTTRQMTTTPAALPTTVVTTPDLTTGTPLQMTTIAVFTTANTCLSLTPSTLPEEATGLLTPEPSKEGPILTAESETVLPSDSWSSVESTSADTVLLTSKESKVWDLPSTSHVSMWKTSDSVSSPQPGASDTAVPEQNKTTKTGQMDGIPMSMKNEMPISQLLMIIAPSLGFVLFALFVAFLLRGKLMETYCSQKHTRLDYIGDSKNVLNDVQHGREDEDGLFTL
B9: NKp80 (protein, UniProt Q9NZS2 1-231, looked up)
Killer cell lectin-like …: MQDEERYMTLNVQSKKRSSAQTSQLTFKDYSVTLHWYKILLGISGTVNGILTLTLISLILLVSQGVLLKCQKGSCSNATQYEDTGDLKVNNGTRRNISNKDLCASRSADQTVLCQSEWLKYQGKCYWFSNEMKSWSDSYVYCLERKSHLLIIHDQLEMAFIQKNLRQLNYVWIGLNFTSLKMTWTWVDGSPIDSKIFFIKGPAKENSCAAIKESKIFSETCSSVFKWICQY
B10: HVEM (protein, UniProt Q92956 39-283, looked up)
Tumor necrosis factor …: LPSCKEDEYPVGSECCPKCSPGYRVKEACGELTGTVCEPCPPGTYIAHLNGLSKCLQCQMCDPAMGLRASRNCSRTENAVCGCSPGHFCIVQDGDHCAACRAYATSSPGQRVQKGGTESQDTLCQNCPPGTFSPNGTLEECQHQTKCSWLVTKAGAGTSSSHWVWWFLSGSLVIVIVCSTVGLIICVKRRKPRGDVVKVIVSVQRKRQEAEGEATVIEALQAPPDVTTVAVEETIPSFTGRSPNH
B11: CD111 (protein, UniProt Q15223 31-517, looked up)
Nectin-1: QVVQVNDSMYGFIGTDVVLHCSFANPLPSVKITQVTWQKSTNGSKQNVAIYNPSMGVSVLAPYRERVEFLRPSFTDGTIRLSRLELEDEGVYICEFATFPTGNRESQLNLTVMAKPTNWIEGTQAVLRAKKGQDDKVLVATCTSANGKPPSVVSWETRLKGEAEYQEIRNPNGTVTVISRYRLVPSREAHQQSLACIVNYHMDRFKESLTLNVQYEPEVTIEGFDGNWYLQRMDVKLTCKADANPPATEYHWTTLNGSLPKGVEAQNRTLFFKGPINYSLAGTYICEATNPIGTRSGQVEVNITEFPYTPSPPEHGRRAGPVPTAIIGGVAGSILLVLIVVGGIVVALRRRRHTFKGDYSTKKHVYGNGYSKAGIPQHHPPMAQNLQYPDDSDDEKKAGPLGGSSYEEEEEEEEGGGGGERKVGGPHPKYDEDAKRPYFTVDEAEARQDGYGDRTLGYQYDPEQLDLAENMVSQNDGSFISKKEWYV

Several values for one entry are separate records, joined by “and”; a condition that tells them apart may be missing. Equal values may be shown once.

In the first data set the test system is undifferentiated hPSC (D0). The data set is described as follows: High-throughput cell-surface marker screening (LEGENDScreen), %PE+. Type of data set: cell-based, human. To be noted: percentage of cells bound to the PE-conjugated antibody (LEGENDScreen).
B1: the “% PE+ in H1 UD” value is given as 99.9%.

Regarding B2, the “% PE+ in H1 UD” value is 0.22%.

On to B3, for which the “% PE+ in H1 UD” value came out at 0.12%.

As to B4, the “% PE+ in H1 UD” value turned out to be 0.2%.

Turning to B5, the “% PE+ in H1 UD” value is recorded as 99.8%.

As to B6, the “% PE+ in H1 UD” value is 0.69% and 0.68%.

As to B7, the “% PE+ in H1 UD” value is 0.69%.

Consider B8, for which the “% PE+ in H1 UD” value is reported as 0.37%.

Turning to B9, the “% PE+ in H1 UD” value is given as 0.23%.

For the molecule B10, the “% PE+ in H1 UD” value is listed as 0.34%.

As to B11, the “% PE+ in H1 UD” value is on record as 99.7%.

A further data set deals with D3.5 SOX17-GFP+ PGCs. Described as above. The data set is classed as cell-based, human. The note with it: percentage of cells bound to the PE-conjugated antibody (LEGENDScreen).
With B1, the “% PE+ in PGCs” value was determined as 0.8468%.

For B2, the “% PE+ in PGCs” value is 0%.

As for B3, the “% PE+ in PGCs” value came out at 0%.

On to B4, for which the “% PE+ in PGCs” value came to 0%.

Regarding B5, the “% PE+ in PGCs” value is 0.7119%.

In the case of B6, the “% PE+ in PGCs” value was 0% and 0.002531%.

Turning to B7, the “% PE+ in PGCs” value was found to be 0%.

For the molecule B8, the “% PE+ in PGCs” value amounted to 0%.

As to B9, the “% PE+ in PGCs” value was determined as 0%.

Consider B10, for which the “% PE+ in PGCs” value was determined as 0%.

For the molecule B11, the “% PE+ in PGCs” value is 0.64%.

Another data set relates to D3.5 SOX17-GFP- non-PGCs. The data set is described as above. Type of data set: cell-based, human. To be noted: percentage of cells bound to the PE-conjugated antibody (LEGENDScreen).
In the case of B1, the “% PE+ in non-PGCs” value stood at 0.8217%.

As for B2, the “% PE+ in non-PGCs” value turned out to be 7.886E-05%.

As for B3, the “% PE+ in non-PGCs” value was found to be 0%.

In the case of B4, the “% PE+ in non-PGCs” value was 0%.

Turning to B5, the “% PE+ in non-PGCs” value is listed as 0.504%.

Regarding B6, the “% PE+ in non-PGCs” value was 4.767E-05% and 0%.

Turning to B7, the “% PE+ in non-PGCs” value amounted to 0.0002532%.

In the case of B8, the “% PE+ in non-PGCs” value was found to be 4.261E-05%.

B9: the “% PE+ in non-PGCs” value is given as 0.0001214%.

Consider B10, for which the “% PE+ in non-PGCs” value was 0.001214%.

Consider B11, for which the “% PE+ in non-PGCs” value is 0.5127%.
